Out of some 320,000 compounds screened, about 620 (0.19%) were called active. The inconclusive results got no clear call from the source; some entries with a clear call stand among them for comparison. Calls follow the shape of the dose curve; as a rule, active = well fitted activation curve with a large enough effect; inconclusive = small, poorly fitted or top-dose-only effect; inactive = no such curve, though single readings can be large or run the other way. Where the call is inconclusive, the potency comes from a doubtful curve fit.
Assay: qHTS Assay for Identifying a Potential Treatment of Ataxia-Telangiectasia; also: nearly all actives have a fitted effect of over 45% in size
Conditions: […] A-T fibroblasts, KAP-1 phosphorylation AlphaLISA, neocarzinostatin DNA damage 30 min before lysis; series mostly up to 57.5 µM
Method in brief: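 hTERT-immortalized A-T patient fibroblasts ([…]), 500 cells/well in OPTI-MEM, 1% FBS, got compounds for 60 min, then NCS for 30 min at 37C. Lysates were then assayed for phospho-KAP-1 by AlphaLISA (anti-pKAP1 donor, anti-KAP1 acceptor beads), 6 hr at 25C.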
Potency is read from the fitted curve at half-maximal effect.

Row | SMILES | Potency
1 | COc1ccccc1-n1c(SCC(N)=O)nc2sc3c(c2c1=O)CCC3 | inconclusive: 0.708 µM [activator, full curve, poor fit]
2 | COc1ccc(C(C#N)c2cnccn2)cc1OC (stereo not given) | inconclusive: 39.8 µM [activator, single point]
3 | COC(=O)c1cc(NC(=O)c2cccc(C(F)(F)F)c2)c(=O)oc1C | inactive
4 | COc1ccc(C)cc1Nc1c2c(nc3ccccc13)CCC2 | inconclusive: 0.708 µM [activator, full curve, poor fit]
5 | Cc1ccc(OCCOC(=O)c2c(-c3ccccc3)noc2C)cc1 | inconclusive: 35.5 µM [activator, partial curve]
6 | CC(C)c1onc(C(=O)NC(C)c2ccccc2)c1[N+](=O)[O-] (stereo not given) | inactive
7 | O=[N+]([O-])c1ccc(N2CCN(c3ccccc3)CC2)nc1 | inconclusive: 0.631 µM [activator, full curve, poor fit]
8 | COc1ccccc1Nc1nc(N)nc(CN2CCN(Cc3ccc4c(c3)OCO4)CC2)n1 | inconclusive: 0.708 µM [activator, full curve, poor fit]
9 | COC(=O)c1ccc(S(=O)(=O)N2CCCN(Cc3cccc(Br)c3F)CC2)n1C | active: 39.8 µM
10 | COc1ccccc1C(=O)NC(=O)Nc1cccc(Cl)c1 | active: 3.55 µM
11 | Nc1cccc2c1C(=O)N(CCOc1ccc(F)cc1)C2=O | inconclusive: 39.8 µM [activator, single point]
12 | CCN(CC)c1ccc2c(Cl)c(Br)c(=O)oc2c1 | inconclusive: 3.98 µM [activator, partial curve, poor fit]
13 | O=C(Nc1ccccc1C(=O)Nc1nnc(C(F)(F)F)s1)c1ccccc1 | inconclusive: 17.8 µM [activator, partial curve]
14 | O=C(C[n+]1ccc2c(c1)nnn2-c1ccccc1)c1ccc(Cl)cc1 | active: 7.94 µM
15 | COc1ccc(-c2ccc3c(N)c(C(=O)NC(C)C)sc3n2)cc1OC | inconclusive: 17.8 µM [activator, partial curve]
16 | CCc1ccc(NC(=O)C2CCN(S(=O)(=O)c3c(C)noc3/C=C/N(C)C)CC2)cc1 | inconclusive: 15.8 µM [activator, partial curve]
17 | COc1cc(C[C@H](C)[C@H](C)Cc2ccc3c(c2)OCO3)ccc1O | inconclusive: 35.5 µM [activator, single point]
18 | CCOC(=O)c1[nH]c(COC(=O)c2ccccc2NC(=O)c2ccco2)c(C(=O)OCC)c1C | inconclusive: 3.55 µM [activator, partial curve]
19 | CCNS(=O)(=O)c1ccc(CCC(=O)NCc2ccccn2)cc1 | inconclusive: 20 µM [activator, partial curve, poor fit]
20 | Fc1ccc(C2=NOC(c3nnc(-c4ccccc4)o3)C2)cc1 (stereo not given) | inconclusive: 1.41 µM [activator, full curve]
21 | NC(=NC(=O)c1ccc(Cl)cc1)N1N=CCC1c1ccccc1 (stereo not given) | inconclusive: 22.4 µM [activator, partial curve]
22 | CCOc1ccc(CCN2C(=O)C(=O)N([C@H](CCCN(C)Cc3ccccc3)CNCc3ccccc3)C[C@@H]2C(C)C)cc1 | active: 39.8 µM

From compound 14 as far as 17, copied from above:
Row | SMILES | Potency
14 | O=C(C[n+]1ccc2c(c1)nnn2-c1ccccc1)c1ccc(Cl)cc1 | active: 7.94 µM
15 | COc1ccc(-c2ccc3c(N)c(C(=O)NC(C)C)sc3n2)cc1OC | inconclusive: 17.8 µM [activator, partial curve]
16 | CCc1ccc(NC(=O)C2CCN(S(=O)(=O)c3c(C)noc3/C=C/N(C)C)CC2)cc1 | inconclusive: 15.8 µM [activator, partial curve]
17 | COc1cc(C[C@H](C)[C@H](C)Cc2ccc3c(c2)OCO3)ccc1O | inconclusive: 35.5 µM [activator, single point]

Quoted from the listing.
CCOC(=O)c1[nH]c(COC(=O)c2ccccc2NC(=O)c2ccco2)c(C(=O)OCC)c1C – Potency: inconclusive: 3.55 µM [activator, partial curve]
COc1ccccc1Nc1nc(N)nc(CN2CCN(Cc3ccc4c(c3)OCO4)CC2)n1 – Potency: inconclusive: 0.708 µM [activator, full curve, poor fit]

Next part.

Row | SMILES | Potency
23 | O=C1CCN2C=Nc3cccc4ccc1c2c34 | inconclusive: 17.8 µM [activator, partial curve]
24 | COc1ccc(C)cc1-n1nnnc1SCc1cc(=O)n2cc(C)ccc2n1 | inconclusive: 28.2 µM [activator, single point]
25 | Cc1ccc(-c2csc(N3C(=N)SCC3=O)n2)cc1 | active: 22.4 µM
26 | CCN(CC)c1ccc2cc(-c3nc(-c4ccc(OC)cc4)cs3)c(=O)oc2c1 | active: 25.1 µM
27 | Oc1ccc(/C=N/N2CCN(C3c4ccccc4-c4ccccc43)CC2)c(O)c1 | inconclusive: 39.8 µM [activator, single point]
28 | CCCCC1=CC2=C(c3ccco3)C(=O)C(C)(OC(=O)c3ccc(OC)cc3)C(=O)C2=CN1Cc1ccc(OC)cc1 (stereo not given) | inconclusive: 5.01 µM [activator, single point]
29 | OCC1(Cc2ccc(F)cc2)CCCN(Cc2ccc(F)cc2Cl)C1 (stereo not given) | inconclusive: 39.8 µM [activator, single point]
30 | Cc1cc(Cl)ccc1OC(C)C(=O)NC(C)C1CCCO1 (stereo not given) | inconclusive: 7.08 µM [activator, single point]
31 | COc1ccccc1-c1sc2ccccc2c1C#Cc1ccc(N(C)C)cc1 | inconclusive: 1.41 µM [activator, full curve, poor fit]
32 | CC(C)n1c2ccccc2c2nc3ccccc3nc21 | active: 35.5 µM
33 | CCOC(=O)C1CCN(S(=O)(=O)c2ccc3c4c(cccc24)C(=O)N3CC)CC1 | inconclusive: 35.5 µM [activator, single point]
34 | Cc1nnc(N/N=C/c2ccc(Br)cc2)n1N | inconclusive: 28.2 µM [activator, single point]
35 | COc1cc(CCC(C)NCc2ccccc2)ccc1O (stereo not given) | inconclusive: 0.708 µM [activator, full curve]
36 | C[C@H](NC(=O)OCc1ccccc1)c1nnc([C@H](C)NC(=O)OCc2ccccc2)o1 | inconclusive: 25.1 µM [activator, single point]
37 | COc1ccc(-c2nc3n(c2C)Cc2ccccc2-3)cc1 | active: 22.4 µM
38 | CC(=O)Nc1ccc(N/C=C/C(=O)c2ccc(C)cc2)cc1 | inconclusive: 20 µM [activator, partial curve]
39 | COc1ccc(NS(=O)(=O)c2ccc(N3CC(O)=C(c4ccccc4)C3=N)cc2)cc1 | inconclusive: 1.12 µM [activator, full curve]
40 | CCCCNc1c2c3c(cccc3n(C)c1=O)C(=O)c1ccccc1-2 | inconclusive: 35.5 µM [activator, single point]
41 | O=S(=O)(Nc1cc2nc3ccccc3nc2n1Cc1ccccc1)c1ccc(Cl)cc1 | active: 25.1 µM
42 | CCOC(=O)c1ccc(-c2c(-c3cc(OC)c(OC)c(OC)c3)noc2C)cc1F | inconclusive: 5.01 µM [activator, partial curve]
43 | COc1ccc(-c2cc(C(F)(F)F)nc(N3CCCCC3)n2)cc1OC | active: 35.5 µM
44 | O=[N+]([O-])C(/C=C(\Cl)[N+](=O)[O-])=C1N(Cc2ccc(Cl)nc2)CCN1Cc1ccc(Cl)nc1 | inactive

Row | SMILES | Potency
45 | COc1cccc2sc(/N=C/N(C)C)nc12 | inactive
46 | O=C(Cn1cnc2ccccc2c1=O)Nc1cccc(S(=O)(=O)N2CCCCC2)c1 | inconclusive: 0.631 µM [activator, full curve, poor fit]
47 | CCN(CC)CC(O)Cn1c(-c2ccccc2Cl)nc2ccccc21 (stereo not given) | active: 15.8 µM
48 | COC(=O)c1ccc(NC(=O)CCN2CCCCC2)cc1 | inconclusive: 7.08 µM [activator, partial curve]
49 | Cc1cccc(/C=C/C(=O)c2ccc(NC3=NCCCS3)cc2)c1 | inconclusive: 28.2 µM [activator, partial curve]
50 | C#CCOCCOCCOCCNc1nc(N2CCN(C(=O)[C@H](Cc3cc4ccccc4[nH]3)n3cc(C(N)CC(C)C)nn3)CC2)nc(N2CCN(C(=O)[C@H](CCC(=O)O)n3cc(C(N)[C@H](C)CC)nn3)CC2)n1 (stereo not given in full) | inactive
51 | O=C(Cc1csc(Nc2nc(=S)[nH]c3ccccc23)n1)NCc1ccccc1Cl | inconclusive: 12.6 µM [activator, partial curve]
52 | CCCCNc1c(-c2cccc(-c3ccc(OC)cc3)c2)nc2ccc(C)cn12 | active: 35.5 µM
53 | FC(F)(F)c1cccc(Sc2cc(C(F)(F)F)nc(-c3ccccn3)n2)c1 | inconclusive: 11.2 µM [activator, partial curve]
54 | C=CCn1c(O)c(N=NC(=S)Nc2ccc(OC)cc2)c2ccccc21 | inactive
55 | O=S(=O)([N-]c1nc2ccccc2nc1-n1cc[n+](Cc2ccccc2)c1)c1ccc(Cl)cc1 | active: 20 µM
56 | CCCCCCSc1ccc([C@@H]2[C@@H]3C(=O)N(C)C(=O)[C@@H]3[C@]3(C(=O)OC)CCCCN23)cc1OC | inconclusive: 28.2 µM [activator, partial curve]
57 | CCOC(=O)c1c(C)[nH]c(C(=O)COC(=O)c2ccc(O)cc2O)c1C | inconclusive: 22.4 µM [activator, partial curve]
58 | CC[C@@H]1CC=C[C@H]2[C@H]1C(=O)N(Cc1ccccc1)[C@H]2c1ccoc1 | inconclusive: 39.8 µM [activator, single point]
59 | CC(C)(C)N1CC(OC(N)=O)C1 | inconclusive: 8.91 µM [activator, partial curve, poor fit]
60 | CCCCC1NC(C(=O)O)CS1 (stereo not given) | inactive
61 | CC(C)CC(C(=O)OCC(=O)Nc1ncc(Cl)cc1Cl)N1C(=O)c2ccccc2C1=O (stereo not given) | inconclusive: 44.7 µM [activator, partial curve, poor fit]
62 | O=[N+]([O-])c1ccc2c(c1)c1ccccc1n2CCO | inconclusive: 39.8 µM [activator, single point]
63 | COC(=O)C1=CN(Cc2ccc(OC)c(OC)c2)C=C(C(=O)OC)C1c1ccc(F)cc1 | inconclusive: 31.6 µM [activator, partial curve]
64 | Cc1ccc(S(=O)(=O)N2CCCCC2)cc1C(=O)N1CCN(c2ccccn2)CC1 | inconclusive: 35.5 µM [activator, partial curve]
65 | COc1ccc(/C=N/NC(=O)CCN2CCCCC2c2cccnc2)cc1Cn1cc([N+](=O)[O-])cn1 (stereo not given) | inconclusive: 39.8 µM [activator, single point]

Reference: PubChem BioAssay AID485349 (National Center for Advancing Translational Sciences (NCATS), 2010)
